Experimental data taken from patent US5589513A, “Pharmaceutical composition and process for the preparation thereof” (Chinoin Gyogyszer es Vegyeszeti Termekek Gyara Rt., priority 1991, dated 1996).
At least one structure is not confirmed: it was looked up by name or label, or the drawing left a doubt.

Legend:
[1] = test system: MPP^+ uptake to the striatatal synaptosones; assay: MPP+ uptake to striatal synaptosomes; format: biochemical; conditions: potential metabolites
Protocol: (§1) 3.) The potential metabolites of deprenyl and p-fluoro-deprenyl, (methylamphetamine, amphetamine and p-fluoro-methylamphetamine, p-fluoro-amphetamine, respectively) have a significant uptake inhibitory potency; they can prevent in vivo the MPTP neurotoxicity without the development of a high degree of MAO inhibition. The tests were carried out according to the method of Heikilla [Nature, 311, 467-469 (1984)].

DSP-4 neurotoxicity = assay: Interaction of deprenyl and p-fluoro-deprenyl metabolites with DSP-4 neurotoxicity; format: in vivo, rats; conditions: dose of 1-5 mg/kg i.p.; without development of MAO inhibition
Protocol: The tests were carried out according to the method of Finnegan [Finnegan et al., Eur. J. Pharmacol., 184, 119-126, (1990)].

MPTP neurotoxicity = MPTP neurotoxicity (dopamine, DOPAC, HVA levels); format: in vivo; conditions: without a high degree of MAO inhibition
Protocol: as §1

| Structure (SMILES) | uptake inhibitory potency [1] | prevention of DSP-4 induced neurotoxicity in vivo (DSP-4 neurotoxicity) | prevention of MPTP neurotoxicity in vivo (MPTP neurotoxicity) |
| --- | --- | --- | --- |
| CNC(C)Cc1ccccc1 (stereo not drawn) [methylamphetamine] | significant | able to prevent | can prevent |
| CNC(C)Cc1ccc(F)cc1 (stereo not drawn) [p-fluoro-methylamphetamine] | significant | able to prevent | can prevent |
